Reference: PubChem BioAssay AID2685 (National Center for Advancing Translational Sciences (NCATS), 2010)
The list shows a part of the results. These are further read-outs of the screen, such as a control signal, another cell line or another target. No call is given for them. Compounds called inactive in the main read-out are mostly missing here. Words in brackets tell the shape of the fitted curve; partial curves, single points and poor fits give uncertain potencies.

Test: qHTS Assay for Lipid Storage Modulators in Drosophila S3 Cells;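 for cell number change: cells counted by Cell Tracker Red CMTPX staining in the red channel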
Settings: BODIPY lipid droplet fluorescence, 18-24 h; for cell number change: measured here: cell count max response, cells fed with added oleic acid
Method in brief: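 Drosophila S3 cells got compounds at several concentrations plus oleic acid (400 uM solution). Laser-scanning cytometry with 488 nm excitation read lipid droplets at 500-530 nm and cells at 575-640 nm. Percent activity was relative to 20 uM Triacsin C.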

[1] = measured here: lipid fluorescence (Fed channel) AC50, cells fed with added oleic acid
[2] = measured here: cell number channel AC50, cells fed with added oleic acid

SMILES | cell number change | AC50 [1] | AC50 [2]
CCOCc1c(C(=O)Nc2ccc3nc(N4CCOCC4)sc3c2)oc2ccccc12 | -21% | 13 µM [falling, partial curve, poor fit] | –
COc1ccc2[nH]c3nc(SCC(=O)Nc4ccc5c(c4)OCO5)nnc3c2c1 | – | – | 6.51 µM [rising, single point]
CCOC(=O)c1ccc(NC(=O)c2nc[nH]c2C(=O)NCCCNC(=O)c2[nH]cnc2C(=O)Nc2ccc(C(=O)OCC)cc2)cc1 | 17.3% | 0.164 µM [rising, full curve, poor fit] | –
COc1ccc(-c2csc3nc(-c4ccccc4)oc(=O)c23)cc1OC | -42.1% | – | 14.6 µM [falling, single point]
CN(C)C(=O)CCSc1nnc(-c2ccco2)o1 | -34.6% | 0.731 µM [rising, single point] | –
CC(C)N(Cc1nccn1C)C(=O)CC1C(=O)NCCN1Cc1ccc(F)cc1 (stereo not drawn) | 11.2% | 14.6 µM [rising, partial curve] | –
Cc1cccc(-n2c(C)c(-c3ccccc3)[nH]c2=S)c1 | 1.62% | 29.1 µM [rising, single point] | –
CC(C)(C)C(=O)NC1CCN(CC(=O)Nc2ccc3c(c2)OCO3)CC1 | – | 0.411 µM [rising, full curve] | –
O=C(NCCCN1CCN(CCCNC(=O)c2cc([N+](=O)[O-])ccc2Cl)CC1)c1cc([N+](=O)[O-])ccc1Cl | 9.11% | 0.13 µM [rising, full curve, poor fit] | 3.66 µM [rising, single point]
COCCN(Cc1nc2ccccc2c(=O)[nH]1)C(=O)c1cccc(S(=O)(=O)N2CCCC2)c1 | -3.06% | – | –
Cc1cccc(C2NC(=O)c3ccccc3O2)c1 (stereo not drawn) | 35.5% | – | 2.31 µM [rising, partial curve, poor fit]
CC(C)n1c(SCc2ccccc2F)nc2c1c(=O)n(C)c(=O)n2C | -1.55% | 5.8 µM [rising, single point] | –
N/C(=N\OC(=O)c1cccs1)c1cccc([N+](=O)[O-])c1 | 16.7% | 0.92 µM [rising, full curve, poor fit] | –
CN1CCC(=NNC(=O)c2ccc(N(Cc3ccccc3Cl)S(C)(=O)=O)cc2)CC1 | -8.35% | 6.51 µM [rising, single point] | –
CCN(CC)C(=O)Cn1c(=O)n(Cc2ccc(F)cc2)c(=O)c2sccc21 | 73.3% | 6.51 µM [rising, single point] | 25.9 µM [rising, partial curve]
S=C(Nc1cccnc1)N1CCCCC1 | -38.8% | 0.00651 µM [falling, full curve, poor fit] | –
CC(=O)N1N=C(c2ccccc2)CC1c1cn(Cc2ccccc2)c2ccccc12 (stereo not drawn) | 3.06% | 0.58 µM [rising, single point] | –
COc1ccccc1CNC(=O)CCNC(=O)C1CCN(S(=O)(=O)c2ccccc2)CC1 | 8.4% | 0.92 µM [rising, full curve, poor fit] | –
CC(=O)N1CCC(=NNS(=O)(=O)c2ccc(C)c([N+](=O)[O-])c2)CC1 | 37.7% | 2.91 µM [falling, full curve] | 0.00517 µM [rising, full curve, poor fit]
O=C(NCc1n[nH]c(=S)n1-c1ccc(Br)cc1)c1ccc(S(=O)(=O)N2CCCC2)cc1 | -3.61% | 3.26 µM [falling, single point] | 0.82 µM [falling, full curve, poor fit]

Reformatted as a markdown table: entries from further up.

| SMILES | cell number change | AC50 [1] | AC50 [2] |
| --- | --- | --- | --- |
| CN(C)C(=O)CCSc1nnc(-c2ccco2)o1 | -34.6% | 0.731 µM [rising, single point] | – |
| CC(C)N(Cc1nccn1C)C(=O)CC1C(=O)NCCN1Cc1ccc(F)cc1 (stereo not drawn) | 11.2% | 14.6 µM [rising, partial curve] | – |

Continuation:

SMILES | cell number change | AC50 [1] | AC50 [2]
Cc1cc(C)n(-c2ccc(C(=O)Nc3ccc4c(c3)OCCO4)cc2)n1 | 138% | – | 20.6 µM [rising, single point]
CCC(C(=O)NCCc1ccco1)n1nc(C)c2c(C)n(-c3ccccc3)nc2c1=O (stereo not drawn) | -8.37% | – | –
Cc1ccc(C)c(COC(=O)c2cc(S(=O)(=O)N3CCCCC3)ccc2N2CCOCC2)c1 | -3.68% | 0.731 µM [rising, single point] | –
COCCn1c(=S)[nH]c2ccccc21 | – | 6.51 µM [falling, single point] | 6.51 µM [falling, single point]
O=C1CC2(CCN(C(=O)C3CC(=O)N(c4ccccc4)C3)CC2)Oc2ccccc21 (stereo not drawn) | -5.55% | 3.26 µM [falling, single point] | 3.66 µM [falling, single point]
COc1ccc(CNCCC(c2ccc(F)cc2)c2ccc(OC)cc2)cc1 (stereo not drawn) | -66.7% | – | 6.51 µM [falling, partial curve]
COc1ccc(OCCNS(=O)(=O)Cc2ccccc2)cc1 | 2.42% | 0.184 µM [rising, full curve, poor fit] | –
CCCC(C(=O)Nc1ccc(C)c(S(=O)(=O)N2CCOCC2)c1)c1ccccc1 (stereo not drawn) | – | 5.8 µM [rising, partial curve, poor fit] | –
CC(=O)NC(CC(=O)NC(C)c1ccc(Cl)cc1Cl)c1ccccc1 (stereo not drawn) | 24.7% | – | –
O=C(CSc1nc2ccccc2c(=O)[nH]1)N1CCN(c2ccccc2)CC1 | -18.8% | – | –
COc1cc(OC)cc(-c2nnc(SCC(=O)Nc3ccc(C(=O)O)cc3)s2)c1 | – | 0.206 µM [falling, full curve, poor fit] | 0.366 µM [falling, full curve, poor fit]
Cc1cc(C(=O)OC(C)C(=O)NC2CCCCC2C)c(C)o1 (stereo not drawn) | -25% | – | 3.26 µM [falling, full curve, poor fit]
O=c1c(-c2ccc(Cl)cc2)cnc2n1CCS2 | 129% | 29.1 µM [rising, partial curve] | 29.1 µM [rising, single point]
S=C(Nc1ccccc1)Nn1cnnc1 | – | 0.58 µM [falling, single point] | –
C=CCOc1c(Br)cc(C2C3=C(CCCC3=O)N(C)C3=C2C(=O)CCC3)cc1OCC | 47.2% | 29.1 µM [rising, single point] | 0.116 µM [falling, full curve, poor fit]
COC(=O)c1cccc(NS(=O)(=O)c2ccc(OC)cc2)c1C | – | 29.1 µM [falling, single point] | –
Cc1ccc(Cl)cc1NC(=O)COC(=O)CC1CC2CCC1C2 (stereo not drawn) | -10.1% | 7.31 µM [falling, single point] | –
O=C(CCCCn1c(=O)c2ccccc2n(Cc2ccccc2)c1=O)NC1CCN(Cc2ccccc2)CC1 | -18.3% | – | –
COc1ccc(Cc2nnc(NS(=O)(=O)Cc3ccccc3)s2)cc1 | -6.64% | – | –
CCN(CC(=O)NCc1ccc(Cl)cc1)C(=O)CNS(=O)(=O)c1ccc(NC(C)=O)cc1 | 16.2% | 29.1 µM [falling, single point] | –

SMILES | cell number change | AC50 [1] | AC50 [2]
CC(=O)c1ccc(NC(=O)CN2C(=O)NC(C)(c3ccc4c(c3)OCCO4)C2=O)cc1 (stereo not drawn) | -9.77% | 32.6 µM [rising, single point] | –
N#Cc1ccc(OCC(=O)N(C2CCCCC2)C2CCS(=O)(=O)C2)cc1 (stereo not drawn) | -12.1% | – | –
CCSc1ncccc1-c1nc2ccccc2[nH]1 | – | 4.61 µM [rising, single point] | 0.82 µM [rising, single point]
O=C(NCCCN1CCOCC1)C1CCN(S(=O)(=O)c2ccccc2)CC1 | -24% | – | –
CCCN(C(=O)CSc1ncnc2sccc12)c1c(N)n(Cc2ccccc2)c(=O)[nH]c1=O | 21.9% | 0.731 µM [falling, single point] | –
COc1cc2c(cc1OC)C1O[C@](CCCCN3C(=O)c4ccccc4C3=O)(C2)OC2=C1C(=O)c1ccccc1C2=O | -12.5% | 0.0266 µM [falling, full curve, poor fit] | –
Cc1cccc(C(=O)OC(C)C(=O)Nc2ccc(S(=O)(=O)Nc3ncccn3)cc2)c1C (stereo not drawn) | 20.6% | 4.61 µM [rising, full curve, poor fit] | 6.51 µM [falling, partial curve, poor fit]
CNC(=S)N1CCN(C(c2ccccc2)c2ccccc2)CC1 | – | 0.731 µM [falling, single point] | –
O=C(O)Cc1sc(N/N=C\c2ccccc2)nc1-c1ccccc1 | 33.8% | – | 9.2 µM [rising, partial curve, poor fit]
Cc1[nH]nc2c1C(c1ccsc1)C(C#N)=C(N)O2 (stereo not drawn) | – | 6.51 µM [falling, single point] | –
CN(C)Cc1cccc([N+](=O)[O-])c1O | -6.62% | – | –
CC(C)c1cc(NCCCN2CCOCC2)n2c(nc3ccccc32)c1C#N | -17.7% | 0.00517 µM [falling, full curve, poor fit] | –
CNC(=S)N/N=C(\C)c1ccc(-n2ccnc2)cc1 | 15% | – | 0.0164 µM [rising, partial curve, poor fit]
CC(C)=CCC/C(C)=C/CCC(C)NCCN1CCNCC1 (stereo not drawn) | -33.5% | 16.4 µM [falling, single point] | 20.6 µM [falling, single point]
Cc1ccc(NCCC#N)cc1C | – | 0.651 µM [falling, full curve, poor fit] | –
CCNc1nc(Cl)nc(NNC(=O)C(C)Oc2ccccc2)n1 (stereo not drawn) | 10.3% | – | 4.11 µM [rising, single point]
CCC(=NCCc1c(C)[nH]c2ccc(C)cc12)C1=C(O)CC(c2ccccc2)CC1=O (stereo not drawn) | -15.4% | 29.1 µM [falling, single point] | –
Cc1ccc(S(=O)(=O)Nc2ccccc2F)cc1C(=O)NNC(=O)c1ccccc1O | -16.2% | 0.13 µM [falling, full curve, poor fit] | –
